PubChem BioAssay AID686938, Drosophila RNAi Screening Center – 2013
Purpose: 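Fly genes required for calcium entry once internal stores are emptied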 (primary screen). System: Drosophila S2R+ cells. Knock-down reagent: long dsRNA against Drosophila genes, about 0.25 µg dsRNA per well, roughly 10,000 cells. Time to read-out: 5 days of knock-down before the calcium assay. Conditions: thapsigargin (SERCA pump blocker) to empty calcium stores; entry signal taken 4 min after adding it. Measurement: 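Per-well fluo-4 fluorescence in two replicates, unnormalised, measured in resting cells and 4 min after store depletion by the SERCA blocker thapsigargin; ratio of the two present in few wells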. Direction: calcium entry signal: higher = stronger calcium signal after store depletion; resting calcium signal: higher = higher resting calcium signal. Hit rule: 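Called when the plate z-score of the entry-to-rest ratio, mean of duplicates, falls below −3; wells with low overall dye signal (Fmax z below −2) or more than five off-targets excluded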. Calls: active = strongly reduced calcium entry; inactive = no strong reduction.
The deposit covers about 23,000 reagents; this is a random part of those with a known target gene and a result. Over the whole deposit, 75 (0.33%) are marked active. 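Raw plate signals without normalisation; calls rest on plate z-scores that were not deposited; ratio present for only 364 wells.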 Unmarked entries are inactive. A plus sign joins genes that one reagent is predicted to hit. Not stated in the record: the dose of the treatment.

gene knocked down | dsRNA | calcium entry signal, replicate 1 (fluorescence units) | calcium entry signal, replicate 2 (fluorescence units) | resting calcium signal, replicate 1 (fluorescence units) | resting calcium signal, replicate 2 (fluorescence units)
CG13544 | DRSC04186 | 3.78e7 | 3.86e7 | 2.04e7 | 1.92e7
Rala | DRSC18703 | 1.69e7 | 2.98e7 | 8.70e6 | 1.25e7
GlnRS | DRSC14140 | 2.47e7 | 2.84e7 | 1.27e7 | 1.46e7
CG12105 | DRSC08255 | 3.24e7 | 2.71e7 | 1.50e7 | 1.33e7
knon | DRSC07049 | 5.04e7 | 5.82e7 | 2.20e7 | 2.68e7
CG3788 | DRSC04418 | 4.35e7 | 4.31e7 | 2.09e7 | 2.01e7
side-VII | DRSC14578 | 3.23e7 | 4.25e7 | 1.50e7 | 1.99e7
Tsp96F | DRSC14147 | 2.27e7 | 2.59e7 | 1.12e7 | 1.39e7
CG6656 | DRSC16085 | 2.55e7 | 2.34e7 | 1.25e7 | 1.18e7
Daao1 | DRSC06131 | 3.95e7 | 4.02e7 | 1.92e7 | 1.82e7
RpL24 | DRSC03185 | 1.83e7 | 1.29e7 | 1.12e7 | 8.31e6
CAH6 | DRSC15505 | 3.69e7 | 5.60e7 | 1.82e7 | 2.35e7
PIG-A | DRSC06982 | 3.29e7 | 2.41e7 | 1.48e7 | 1.35e7
Pkc53E | DRSC05636 | 2.98e7 | 3.83e7 | 1.39e7 | 1.95e7
Pkc53E | DRSC07510 | 3.79e7 | 3.68e7 | 1.78e7 | 1.88e7
Sara | DRSC04653 | 3.66e7 | 5.92e7 | 1.95e7 | 2.53e7
HisT | DRSC05051 | 2.22e7 | 3.40e7 | 1.22e7 | 1.47e7
HisT | DRSC05052 | 2.66e7 | 3.90e7 | 1.36e7 | 1.69e7
HisT | DRSC06405 | 1.72e7 | 1.74e7 | 8.58e6 | 9.22e6
Ir25a | DRSC00462 | 2.66e7 | 3.07e7 | 1.37e7 | 1.47e7
E(spl)m6-BFM | DRSC16993 | 3.34e7 | 5.35e7 | 1.78e7 | 2.29e7
RpS14a | DRSC18710 | 6.11e6 | 7.43e6 | 5.20e6 | 5.85e6
Uba3 | DRSC06377 | 3.55e7 | 3.33e7 | 1.58e7 | 1.57e7
CG31249 | DRSC16248 | 2.16e7 | 3.02e7 | 3.02e7 | 1.34e7
CG32391 | DRSC08865 | 3.56e7 | 6.95e7 | 1.70e7 | 2.96e7
CG6421 | DRSC07420 | 3.18e7 | 2.86e7 | 1.37e7 | 1.43e7
Pkn | DRSC06809 | 2.54e7 | 2.36e7 | 1.08e7 | 1.16e7
Pkn | DRSC06810 | 4.64e7 | 4.32e7 | 2.21e7 | 1.89e7
COX6CL | DRSC00895 | 2.86e7 | 3.94e7 | 1.52e7 | 1.57e7
E(spl)m7-HLH | DRSC16696 | 3.09e7 | 5.25e7 | 1.74e7 | 2.09e7
CG31807 | DRSC01550 | 2.04e7 | 3.34e7 | 1.12e7 | 1.36e7
CG12661 | DRSC17864 | 3.13e7 | 3.22e7 | 1.58e7 | 1.56e7
CG4860 | DRSC15664 | 3.81e7 | 4.90e7 | 1.71e7 | 2.46e7
CG4860 | DRSC21755 | 2.98e7 | 3.01e7 | 1.60e7 | 1.54e7
Art4 | DRSC15779 | 3.19e7 | 4.51e7 | 1.71e7 | 2.15e7
Cpr64Ad | DRSC08284 | 4.18e7 | 4.04e7 | 2.04e7 | 1.80e7
LysE | DRSC08675 | 2.63e7 | 2.81e7 | 1.36e7 | 1.35e7
CG18598 | DRSC15356 | 3.40e7 | 3.75e7 | 3.75e7 | 1.66e7
CG42531 | DRSC05318 | 5.63e7 | 2.96e7 | 2.28e7 | 1.23e7
snoRNA:Me28S-C3420b + RpS11 | DRSC07396 | 3.04e7 | 4.02e7 | 1.48e7 | 1.66e7

Copied from the list.
Result of CG4860 [DRSC21755] in “calcium entry signal, replicate 1 (fluorescence units)”: 2.98e7
Entry for HisT [DRSC06405] in “calcium entry signal, replicate 1 (fluorescence units)”: 1.72e7
Result of CAH6 [DRSC15505] under “calcium entry signal, replicate 2 (fluorescence units)”: 5.60e7
Under “resting calcium signal, replicate 1 (fluorescence units)”, Rala [DRSC18703] shows 8.70e6
For “calcium entry signal, replicate 1 (fluorescence units)”, GlnRS [DRSC14140] has 2.47e7
